From PubChem BioAssay AID651640 (Broad Institute, 2012)
Out of some 350,000 compounds screened, about 6,000 (1.7%) were called active. The inconclusive results got no clear call from the source; some entries with a clear call stand among them for comparison. Cut-off read from the data, not from the text of the source: active = CPE inhibition above about 20% (passing the limit was not always enough); inconclusive = no clear call, values can overlap the other calls; tested in BHK-21 cells.

assay: protection of cells from dengue 2 killing – plate reader, single concentration, primary screen (AID 651640); conditions: DENV2-infected cells, cytopathic effect rescue, at 9.99 µM, hits give high values;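 note: 0% = median of neutral control wells and 100% = median of positive control wells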

Structure (SMILES)	CPE inhibition
Cc1ccc(NC(=O)Nc2nnc([C@H]3C[C@H](O)[C@@H](CO)O3)s2)cc1	inconclusive: 21.4%
O=C(C[C@H]1C=C[C@@H](NS(=O)(=O)c2cccc(F)c2)[C@@H](CO)O1)NCc1ccc2c(c1)OCO2	inactive: -7.18%
C[C@H](CO)N1C[C@H](C)[C@@H](CN(C)C(=O)c2ccc3ccn(C)c3c2)OCc2cnnn2CCCC1=O	inconclusive: 22.2%
C[C@@H](C(=O)Nc1ccc2ccccc2c1)[C@@H]1C[C@@]1(C)[C@@H](NC(=O)c1cnccn1)c1ccccc1	inconclusive: 36%
CCC(=O)N1CC2(C1)CN(C(=O)CC)[C@H](CO)c1[nH]c3cc(OC)ccc3c12	inconclusive: 29.6%
COc1ccccc1C(=O)NN(C)C1=NS(=O)(=O)c2ccccc21	inactive: 9.04%
CN(C)C1CCN(C(=O)c2cccc(OC3CCN(S(=O)(=O)N(C)C)CC3)c2)C1 (stereo not given)	inconclusive: 37.6%
CCN(CC)c1c(-c2ccccc2)c2cc(C)ccc2[nH]c1=O	inconclusive: 25.5%
CC(=O)Nc1ccc(NC(=S)NC(=O)c2cc3ccccc3o2)cc1	inconclusive: 78.2%
CO[C@H]1CN(C)C(=O)c2cc(NC(C)=O)ccc2OC[C@H](C)N(C(=O)CN(C)C)C[C@H]1C	active: 44.1%
OC[C@@H]1[C@H](c2ccc(-c3ccc(F)cc3)cc2)[C@@H]2CN(Cc3ccncc3)CCCCN12	active: 38%
CCCC(=O)Nc1ccc2c(c1)C(=O)N(C)[C@@H]1CC[C@@H](CC(=O)N3CCc4ccccc4C3)O[C@H]1CO2	inconclusive: 75.9%
O=C(NCCN1CCCCC1)[C@H]1[C@H](CO)[C@H]2Cn3c(cccc3=O)[C@H]2N1C(=O)C1CC1	inactive: 18.5%
CCCN1C[C@H](C)[C@@H](OC)CN(C)C(=O)c2ccc(NS(C)(=O)=O)cc2OC[C@H]1C	active: 27.3%
CCN(C[C@H]1N[C@H](CO)[C@@H]1c1ccc(-c2ccc(F)cc2)cc1)C(=O)COC	active: 44.7%
Cc1ccc(C(=O)Cn2c(=N)n(CCN3CCOCC3)c3ccccc32)cc1	inconclusive: 34.8%
CCC(C(=O)NCCCc1ccccc1)n1nc(C)c2c(C)n(-c3ccccc3)nc2c1=O (stereo not given)	inconclusive: 21%
COc1ccc(NS(=O)(=O)c2ccc(NC(=S)NC(=O)c3ccc(Br)cc3)cc2)nn1	inconclusive: 38.6%
O=C(COc1coc(CN2CCc3ccccc3C2)cc1=O)Nc1ccc(F)cc1F	inconclusive: 56.9%
C[C@H](CO)N1C[C@H](C)[C@@H](CN(C)C(=O)C2CC2)Oc2cc(/C=C/c3ccccc3)ccc2S1(=O)=O	inconclusive: 31.2%
C[C@@H]1CN([C@H](C)CO)C(=O)CCCn2cc(nn2)CO[C@H]1CN(C)S(=O)(=O)c1ccc(Cl)cc1	inconclusive: 84%
COc1ccc(-n2ncc(C(C)NS(=O)(=O)c3cccs3)c2C)cc1 (stereo not given)	inconclusive: 49.3%
COc1ccc(CN2C[C@@H](O)COC[C@@H]3O[C@@H](CC(=O)NCCN4CCCC4)CC[C@H]32)cc1	inconclusive: 21.6%

In a second layout: results already given.
Structure (SMILES) | CPE inhibition
COc1ccccc1C(=O)NN(C)C1=NS(=O)(=O)c2ccccc21 | inactive: 9.04%
CCCN1C[C@H](C)[C@@H](OC)CN(C)C(=O)c2ccc(NS(C)(=O)=O)cc2OC[C@H]1C | active: 27.3%

Remaining list, next part

Structure (SMILES)	CPE inhibition
C=CCCN(CC#C[C@H]1Oc2ccccc2S(=O)(=O)N2CCC[C@@H]12)S(=O)(=O)c1ccc(C)cc1	inactive: -7.54%
C[C@H]1CN([C@@H](C)CO)C(=O)c2ccccc2-c2ccccc2CO[C@H]1CN(C)Cc1ccc(C(F)(F)F)cc1	active: 50.2%
O=C(/C=C/c1ccccc1)NCCc1ccc2c(c1)OCCO2	active: 59.2%
COc1ccc(CNC(=O)CN(Cc2ccc(C)cc2)C(=O)c2csnn2)cc1	inconclusive: 26.1%
O=C(O)C1CCN(C(=O)CSc2nc3cc(Cl)ccc3c(=O)n2Cc2ccccc2)CC1	inactive: 2.36%
CC(=O)N1CCN(C(=O)c2cc(S(=O)(=O)Nc3ccc(S(C)(=O)=O)cc3)ccc2Cl)CC1	inactive: 3.5%
CCN(CC)S(=O)(=O)c1cccc(NC(=O)c2ccc(C#N)cc2)c1	inconclusive: 21%
COc1cc(SC)ccc1C(=O)OC(C)C(=O)Nc1ccc(NC(C)=O)cc1 (stereo not given)	inactive: -3.39%
COc1ccc(C(=O)N2CCCC(CCC(=O)NCc3ccc(F)c(F)c3)C2)cc1F (stereo not given)	inactive: 5.6%
Cc1ccccc1-c1ccc([C@H]2[C@H]3CN(C(=O)NC4CCCC4)CCCCN3[C@H]2CO)cc1	inconclusive: 21.9%
C[C@@H]1CCCCO[C@@H](CN(C)CC2CCCCC2)[C@H](C)CN([C@@H](C)CO)C(=O)c2cc(NC(=O)Nc3ccc(F)cc3)ccc2O1	active: 29.1%
COc1ccc(NC(=O)N[C@@H]2CC[C@@H](CCNS(=O)(=O)c3cccc(Cl)c3)O[C@H]2CO)cc1	inactive: 0.875%
COCC(=O)N1CC(=O)N2[C@@H](CO)[C@H](c3ccc(C#CC4CC4)cc3)[C@@H]2C1	inactive: 17.7%
CN(C)C(=O)c1cccc(-c2ccccc2[C@@H]2[C@@H](C#N)N(C(=O)C3CCC3)[C@H]2CO)c1	inconclusive: 23.2%
C[C@@H]1CN([C@H](C)CO)C(=O)c2cc(-c3ccc(F)cc3)cnc2O[C@H]1CN(C)C(=O)c1ccc(F)cc1	inconclusive: 48.3%
CCCCC1CCCOC(C(=O)NCCNCCO)(C(F)(F)F)C1 (stereo not given)	inconclusive: 21.4%
C[C@H](CO)N1C[C@H](C)[C@@H](CN(C)Cc2ccccn2)Oc2ncc(C#C[C@@H](C)O)cc2C1=O	inactive: 3.37%
CC(C)NC(=O)N(C)C[C@@H]1OCCCC[C@@H](C)Oc2ccc(NS(=O)(=O)c3ccc(Cl)cc3)cc2C(=O)N([C@H](C)CO)C[C@H]1C	inactive: -5.75%
C[C@H](c1ccccc1)N1C[C@@H](COCc2ccccc2)Oc2cc(N3CC[C@@H](O)C3)ccc2S1(=O)=O	inconclusive: 22.6%
COCC(=O)Nc1ccc2c(c1)C(=O)N(C)[C@H]1CC[C@H](CC(=O)NCc3ccccc3)O[C@H]1CO2	inactive: -1.4%
O=C(c1ccccc1S(=O)(=O)NCc1ccccc1)N1CCCC1	inconclusive: 48.5%
CC(C)(C)N1CC23CCC(C[C@@H]2C1=O)O3 (stereo not given in full)	active: 39.3%
